In PubChem BioAssay (NCATS):
The shares of active, inactive and inconclusive entries below differ from those in the screen. Potencies beside an inconclusive call are fits to weak or partial responses and may not hold up. Activity calls are given as the source filed them. Calls come from the whole dose curve; as a rule, active = well fitted curve in the direction sought with a large enough effect; inconclusive = small, poorly fitted or top-dose-only effect, or another doubt; inactive = no such curve, though single readings can be large; an effect the other way counts as inactive or inconclusive.

Columns and labels:
[1] = Quantitative High-Throughput drug screen in 47 multiple myeloma cell lines against the NCATS MIPE library collection: JIM3_ECACC cell viability assay (AID 1918963; note: nearly all actives have a fitted effect of over 35% in size); settings: JIM3 myeloma viability, CellTiter-Glo ATP, 48 h; series mostly up to 45.8 µM
Procedure, shortened: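 Inhibition of cell viability is measured here. Each line was plated at 500 cells per well, treated with MIPE 4.0 drugs, kept 48 hours at 37C, then assayed for ATP content by CellTiter-Glo luminescence.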

[2] = Quantitative High-Throughput drug screen in 47 multiple myeloma cell lines against the NCATS MIPE library collection: JIM1_ECACC cell viability assay (AID 1918964); settings: JIM1 myeloma viability, CellTiter-Glo ATP luminescence, 48 h; viability (% of DMSO): at 45.8 µM (top of the series)
Procedure, shortened: (§1)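 Viability readout: CellTiter-Glo luminescence following 5 min room-temperature incubation with reagent. Prior exposure: 48 h, 37C, humidified 5% CO2, 500 cells per well.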

[3] = Quantitative High-Throughput drug screen in 47 multiple myeloma cell lines against the NCATS MIPE library collection: H1112_PLB cell viability assay (AID 1918967; note: nearly all actives have a fitted effect of over 30% in size); settings: H1112 myeloma cells viability, ATP luminescence, 48 h; viability: at 45.8 µM (top of the series)
Procedure, shortened: as §1

[4] = Quantitative High-Throughput drug screen in 47 multiple myeloma cell lines against the NCATS MIPE library collection: Karpas25_ECACC cell viability assay (AID 1918968; note: nearly all actives have a fitted effect of over 35% in size); settings: Karpas25 myeloma viability, CellTiter-Glo ATP, 48 h; viability (% of control): at 45.8 µM (top of the series)
Procedure, shortened: as §1

[5] = Quantitative High-Throughput drug screen in 47 multiple myeloma cell lines against the NCATS MIPE library collection: KMS27_JCRB cell viability assay (AID 1918970); settings: KMS27 myeloma cells, CellTiter-Glo ATP viability, 48 h; viability (% of DMSO): at 45.8 µM (top of the series); note: nearly all actives have a fitted effect of over 30% in size
Procedure, shortened: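 CellTiter-Glo luminescence after 48 h drug exposure at 37 °C; 500 cells/well, 1536-well format, pin-tool compound addition; DMSO = 100%, media-only = 0% viability.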

[6] = Quantitative High-Throughput drug screen in 47 multiple myeloma cell lines against the NCATS MIPE library collection: KMS12BM_JCRB cell viability assay (AID 1918971); note: nearly all actives have a fitted effect of over 35% in size
Procedure, shortened: (§2)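 qHTS of the MIPE 4.0 collection: 500 myeloma cells/well, 48 h drug exposure at 37C in 5% CO2, then CellTiter-Glo for 5 min at room temperature before luminescence reading.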

[7] = Quantitative High-Throughput drug screen in 47 multiple myeloma cell lines against the NCATS MIPE library collection: KMS20_JCRB cell viability assay (AID 1918973); settings: CellTiter-Glo ATP, 48 h; viability (% of DMSO): at 45.8 µM (top of the series); note: nearly all actives have a fitted effect of over 45% in size
Procedure, shortened: as §1

[8] = Quantitative High-Throughput drug screen in 47 multiple myeloma cell lines against the NCATS MIPE library collection: KMS26_JCRB cell viability assay (AID 1918975); settings: KMS26 myeloma cells viability, CellTiter-Glo ATP, 48 h; viability (% of DMSO): at 45.8 µM (top of the series); note: nearly all actives have a fitted effect of over 45% in size
Procedure, shortened: as §2

[9] = Quantitative High-Throughput drug screen in 47 multiple myeloma cell lines against the NCATS MIPE library collection: MOLP8_DSMZ cell viability assay (AID 1918977); settings: MOLP8 myeloma viability, CellTiter-Glo ATP luminescence, 48 h; viability (% of control): at 45.8 µM (top of the series); note: nearly all actives have a fitted effect of over 45% in size
Procedure, shortened: (§3)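 Viability after 48 h drug exposure was measured as ATP-dependent luminescence. Cells, 500 per well, sat at 37 °C under 5% CO2; DMSO wells set 100%, media-only wells 0%.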

[10] = Quantitative High-Throughput drug screen in 47 multiple myeloma cell lines against the NCATS MIPE library collection: NCIH929_DSMZ cell viability assay (AID 1918978); note: nearly all actives have a fitted effect of over 35% in size
Procedure, shortened: as §3

[11] = Quantitative High-Throughput drug screen in 47 multiple myeloma cell lines against the NCATS MIPE library collection: OCIMY1_PLB cell viability assay (AID 1918979); note: nearly all actives have a fitted effect of over 35% in size
Procedure, shortened: as §3

[12] = Quantitative High-Throughput drug screen in 47 multiple myeloma cell lines against the NCATS MIPE library collection: MM1S_ATCC cell viability assay (AID 1918980); note: nearly all actives have a fitted effect of over 45% in size
Procedure, shortened: as §3

[13] = Quantitative High-Throughput drug screen in 47 multiple myeloma cell lines against the NCATS MIPE library collection: KMS28PE_JCRB cell viability assay (AID 1918983); note: nearly all actives have a fitted effect of over 35% in size
Procedure, shortened: as §3

[14] = Quantitative High-Throughput drug screen in 47 multiple myeloma cell lines against the NCATS MIPE library collection: KMS21BM_JCRB cell viability assay (AID 1918974); settings: ATP luminescence, 48 h; viability: at 45.8 µM (top of the series) unless noted
Procedure, shortened: as §1

[15] = Quantitative High-Throughput drug screen in 47 multiple myeloma cell lines against the NCATS MIPE library collection: MM1R_ATCC cell viability assay (AID 1918981); note: nearly all actives have a fitted effect of over 35% in size
Procedure, shortened: as §3

[16] = Quantitative High-Throughput drug screen in 47 multiple myeloma cell lines against the NCATS MIPE library collection: MMM1_PLB cell viability assay (AID 1918976); note: nearly all actives have a fitted effect of over 35% in size
Procedure, shortened: as §3

[17] = Quantitative High-Throughput drug screen in 47 multiple myeloma cell lines against the NCATS MIPE library collection: LP1_DSMZ cell viability assay (AID 1918982); note: nearly all actives have a fitted effect of over 35% in size
Procedure, shortened: as §3

[18] = Quantitative High-Throughput drug screen in 47 multiple myeloma cell lines against the NCATS MIPE library collection: JJN3_DSMZ cell viability assay (AID 1918966; note: nearly all actives have a fitted effect of over 50% in size); settings: JJN3 myeloma cells viability, CellTiter-Glo ATP, 48 h; series mostly up to 45.8 µM
Procedure, shortened: as §1

[19] = Quantitative High-Throughput drug screen in 47 multiple myeloma cell lines against the NCATS MIPE library collection: KMS12PE_JCRB cell viability assay (AID 1918972); settings: KMS12PE myeloma viability, CellTiter-Glo ATP, 48 h; viability: at 45.8 µM (top of the series); note: nearly all actives have a fitted effect of over 30% in size
Procedure, shortened: as §2
Potency is the fitted concentration of half-maximal effect.

| Structure (SMILES) | Potency [1] | Potency [2] | Potency [3] | Potency [4] | Potency [5] | Potency [6] | Potency [7] | Potency [8] | Potency [9] | Potency [10] | Potency [11] | Potency [12] | Potency [13] | Potency [14] | Potency [15] | Potency [16] | Potency [17] | Potency [18] | Potency [19] |
| --- | --- | --- | --- | --- | --- | --- | --- | --- | --- | --- | --- | --- | --- | --- | --- | --- | --- | --- | --- |
| CCOC(=O)N[C@@H]1CC[C@@H]2[C@@H](C1)C[C@H]1C(=O)O[C@H](C)[C@H]1[C@@H]2C=Cc1ccc(-c2cccc(F)c2)cn1 | inconclusive: 26.4 µM [cytotoxic, single point] | inconclusive: 0.0013 µM [cytotoxic, full curve, poor fit] | inconclusive: 33.2 µM [cytotoxic, single point] | inconclusive: 23.5 µM [cytotoxic, partial curve] | active: 18.7 µM | active: 20.9 µM | inconclusive: 0.0235 µM [cytotoxic, full curve, poor fit] | inactive | inactive | inconclusive: 33.2 µM [cytotoxic, single point] | inconclusive: 33.2 µM [cytotoxic, single point] | inconclusive: 23.5 µM [cytotoxic, single point] | inconclusive: 33.2 µM [cytotoxic, single point] | – | – | – | – | – | – |
| NS(=O)(=O)c1cc2c(cc1Cl)NCNS2(=O)=O | inconclusive: 33.2 µM [cytotoxic, single point] | inconclusive: 10.5 µM [cytotoxic, full curve, poor fit] | – | inconclusive: 33.2 µM [cytotoxic, single point] | – | inconclusive: 0.001 µM | inconclusive: 3.32 µM [rising, full curve, poor fit] | inconclusive: 37.2 µM [cytotoxic, single point] | inactive | – | – | inconclusive: 0.0132 µM [rising, full curve, poor fit] | inactive | inconclusive: 20.9 µM [rising, partial curve, poor fit] | inconclusive: 37.2 µM [cytotoxic, single point] | – | – | – | – |
| CN1CCC(=C2c3ccccc3C=Cc3ccccc32)CC1 | inconclusive: 23.5 µM [cytotoxic, partial curve] | inconclusive: 37.2 µM [cytotoxic, single point] | – | active: 7.43 µM | active: 23.5 µM | inconclusive: 29.6 µM [cytotoxic, single point] | – | inconclusive: 20.9 µM [cytotoxic, partial curve, poor fit] | inconclusive: 37.2 µM [cytotoxic, single point] | – | inconclusive: 0.0023 µM [cytotoxic, full curve, poor fit] | active: 14.8 µM | inconclusive: 33.2 µM [cytotoxic, single point] | inconclusive: 14.8 µM [cytotoxic, partial curve, poor fit] | active: 23.5 µM | inconclusive: 33.2 µM [cytotoxic, partial curve, poor fit] | inconclusive: 20.9 µM [cytotoxic, single point] | – | – |
| NC(=O)c1cnc(-c2ccc(C3(N)CCC3)cc2)c(-c2ccccc2)c1 | inconclusive: 13.2 µM [cytotoxic, partial curve] | inconclusive: 23.5 µM [cytotoxic, partial curve, poor fit] | – | – | inconclusive: 23.5 µM [cytotoxic, partial curve, poor fit] | – | inconclusive: 13.2 µM [cytotoxic, partial curve, poor fit] | – | inconclusive: 0.001 µM [cytotoxic] | – | inconclusive: 13.2 µM [cytotoxic, partial curve] | inconclusive: 13.2 µM [cytotoxic, partial curve, poor fit] | active: 0.332 µM | inconclusive: 37.2 µM [cytotoxic, single point] | – | – | active: 2.64 µM | inconclusive: 13.2 µM [cytotoxic, partial curve, poor fit] | inconclusive: 9.35 µM [cytotoxic, partial curve] |
| COCCOc1nc(-c2ccc(Cl)c(Cl)c2)n(-c2ccc(NC(=O)CCl)cc2)n1 | inconclusive: 18.7 µM [cytotoxic, partial curve] | active: 14.8 µM | – | active: 5.26 µM | – | – | inconclusive: 18.7 µM [cytotoxic, partial curve, poor fit] | inconclusive: 37.2 µM [cytotoxic, single point] | inconclusive: 23.5 µM [cytotoxic, partial curve, poor fit] | active: 13.2 µM | inconclusive: 26.4 µM [cytotoxic, single point] | inconclusive: 16.6 µM [cytotoxic, partial curve] | inconclusive: 18.7 µM [cytotoxic, partial curve, poor fit] | active: 16.6 µM | – | active: 16.6 µM | inconclusive: 10.5 µM [cytotoxic, partial curve] | – | – |
| Nc1nc(OCc2ccccc2)c2[nH]cnc2n1 | active: 13.2 µM | inconclusive: 16.6 µM [cytotoxic, partial curve, poor fit] | – | – | – | inactive | inconclusive: 14.8 µM [cytotoxic, partial curve, poor fit] | inconclusive: 20.9 µM [cytotoxic, partial curve, poor fit] | inconclusive: 37.2 µM [cytotoxic, partial curve, poor fit] | inconclusive: 26.4 µM [cytotoxic, single point] | inconclusive: 0.0012 µM [rising, full curve, poor fit] | – | – | active: 4.69 µM | – | inconclusive: 0.0026 µM [rising, full curve, poor fit] | – | inconclusive: 14.8 µM [cytotoxic, partial curve, poor fit] | inconclusive: 16.6 µM [cytotoxic, partial curve] |
| COc1cc(NC(=O)c2ccc(-c3ccc(Cl)cc3)o2)cc(OC)c1 | active: 11.8 µM | inconclusive: 16.6 µM [cytotoxic, partial curve, poor fit] | – | – | inconclusive: 20.9 µM [cytotoxic, partial curve, poor fit] | inconclusive: 0.0935 µM [rising, full curve, poor fit] | inconclusive: 5.26 µM [cytotoxic, partial curve, poor fit] | inactive | inconclusive: 0.372 µM [rising, full curve, poor fit] | – | inconclusive: 0.0047 µM [rising, full curve, poor fit] | – | inconclusive: 0.0083 µM [rising, full curve, poor fit] | – | – | inconclusive: 0.0264 µM [rising, full curve, poor fit] | – | inconclusive: 1.32 µM [rising, full curve, poor fit] | – |
